Laboratory results as given in patent CN112745389A.
Results are given in words; binding and its absence hold for the method and conditions named. Some binding calls cover weakened binding; strength is not graded here.

Protein sequences, listed by entry. Tags and fused reporters are not part of them. Residues count along the entry.
UniProt P05113, residues 20-134: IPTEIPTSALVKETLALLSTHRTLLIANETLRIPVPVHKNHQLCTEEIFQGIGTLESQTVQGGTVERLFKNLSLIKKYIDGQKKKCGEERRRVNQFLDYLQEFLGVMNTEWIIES

Key:
[1] = target: 人IL-5蛋白 (human interleukin-5) (human) (UniProt P05113); experiment: affinity measurement (sensorgram; Figure 6)
[2] = target: 人IL-5蛋白 (human interleukin-5) (human) (UniProt P05113); experiment: affinity measurement (method not told here)

binding [1]: binds
binding [2]: binds
B1: 人源化抗体30E6D5 (humanized 30E6D5) (antibody, human IgG1, kappa, V domains shown)
VH: EVQLQQSGAEVKKPGATVKISCKTSGFNIKDYFMHWVQQAPGKGLEWMGRIDPEDGETIYAEKFQGRVTITADTSTNTAYMELSSLRSEDTAVYYCVSYSTYPDYWGQGTTVTVSS
VL: EIVLTQSPDFQSVTPKEKVTITCSASSSVSYMYWYQQKPDSSPKLWIYLTSTLASGVPSRFSGSGSGTDYTLTINSLEAEDAATYYCQQWSSTPFTFGQGTKLEIKR
